The campaign covered roughly 31,000 sequences. About 1,400 (4.5%) were called active.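 Rule for the calls: active = median seed-adjusted z-score above 1 or below -1; inactive = the rest.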 The list shows a part of the results.

The nature of the assay: Novel Modifiers of Survival Motor Neuron (SMN) Protein: Gene Identification via Genome-wide siRNA Screen.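 Note: luminescence tracks full-length SMN protein made from the SMN2 reporter.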 The following applies: HEK293T SMN2-luciferase reporter, siRNA knockdown, 72 h; actives lie on both sides. The gist of the method: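 HEK293T cells stably carrying an SMN2 promoter/splicing cassette–luciferase reporter were reverse-transfected with 1 pmol siRNA per well (druggable-genome library, 3 siRNAs per gene) and grown 72 h at 37 °C. Luminescence, normalized to negative-control siRNA and log10-transformed, was scored as MAD.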
GAGUAUAAGCAUAACGAAATT against MASTL: the median seed-adjusted z-score is inactive: -0.195.

GCAGAUUGGGAACCUAUUUTT against SLC43A3: the median seed-adjusted z-score was inactive: 0.431.

Consider UGAUGUCUCUGAGAUCCAATT against SLC25A23, for which the median seed-adjusted z-score was inactive: 0.325.

CCUCAUGUCUCAGACUAUATT against MAP3K2: the median seed-adjusted z-score is inactive: 0.

With ACACUCUUGUGGUCAAGAATT against HNRNPC, the median seed-adjusted z-score is active: -2.15.

Consider GCAGAGCGUGCACCAAUGATT against S100A3, for which the median seed-adjusted z-score was inactive: -0.176.

Take GCAACGUGCUGCACCAAAATT against AIM2: the median seed-adjusted z-score is inactive: 0.0646.

As to CCUCCUCAGAUGAUUCAAATT against ZDHHC5, the median seed-adjusted z-score is inactive: -0.307.

For the sequence AGAAUGAGCCCGAACCAGATT against BRSK2, the median seed-adjusted z-score was inactive: -0.12.

For GAGCUACAGAUGACCAGGATT against PRODH, the median seed-adjusted z-score is inactive: 0.497.

As to CACUGUUUCUUCACCGGCATT against ZDHHC22, the median seed-adjusted z-score is inactive: 0.00446.

As for CUGUAGAUCUUUGUCAAAATT against DUS4L, the median seed-adjusted z-score was inactive: 0.525.

Turning to AGUGGGCCUUUAAUCUCUATT against KCNIP3, the median seed-adjusted z-score was inactive: 0.283.

Turning to GGAACUAAGUGACCUCCGATT against ZNFX1, the median seed-adjusted z-score was inactive: -0.368.

As for UCGUCAAGGUGGACCUAAATT against AURKB, the median seed-adjusted z-score is inactive: 0.0901.

Consider GCGCAAGCUUAAGAACUUUTT against PRPF19, for which the median seed-adjusted z-score is inactive: -0.485.

Consider CCUCCUUAAGUAUCCAUAUTT against ZNF699, for which the median seed-adjusted z-score is inactive: -0.428.

For the sequence GGAUUUAUAUCAAUGUCUUTT against SLC17A3, the median seed-adjusted z-score is inactive: -0.296.

Take CAGAUCUUGUUGCUAACUATT against EDIL3: the median seed-adjusted z-score was inactive: 0.

For the sequence GGCUUCAUAUCUAGACUAATT against APOBEC3A, the median seed-adjusted z-score is inactive: 0.467.

In the case of GUACUCUAGUAAUGGAAUATT against A4GNT, the median seed-adjusted z-score was inactive: 0.213.

In the case of GGGACAAGAUGUUACAUCATT against UCHL3, the median seed-adjusted z-score was inactive: 0.378.

With AGAUGUUUAUCUAACCUGATT against MRGPRX3, the median seed-adjusted z-score is inactive: -0.175.

For GAGCAGGAGUUAAGCCCAATT against ELN, the median seed-adjusted z-score was inactive: -0.149.

Turning to GCUUUGGUGGAUCACCUCATT against BLOC1S1, the median seed-adjusted z-score is inactive: 0.0692.

Regarding GCUUAUUGCUCAAUCCACATT against ZNHIT3, the median seed-adjusted z-score is inactive: -0.311.

Consider GAAGAAUUCAGAUCUAUAATT against PRDX4, for which the median seed-adjusted z-score is inactive: -0.188.

As for GGAAGAGUCUCUCAACGGATT against ABCC11, the median seed-adjusted z-score was inactive: 0.322.

GACUUUGCAUUUCCUAGUATT against HSPA1A: the median seed-adjusted z-score is inactive: -0.833.

Source of the values: PubChem BioAssay AID1347426 (Functional Genomics Laboratory (NCATS/FGL), 2020).
